The list shows a part of the results.
What was measured:
Assay in all cases: log2 fold change, soluble protein after heating vs DMSO (PISA); higher = thermal stabilisation; K562 lysate, 10 uM; active = over 0.2 and 3.5 SD of the protein, either way, in both replicates (recomputed)
[1] = compound: NCC(=O)Nc1ccc(-n2nc(C(F)(F)F)cc2-c2ccc3c(ccc4ccccc43)c2)cc1
Outline: (§1)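 Log-two fold change in thermal stability relative to solvent controls is reported from duplicates. For each sample, crude K562 extract from dounce-homogenised pellets in PBS pH 7.4 with 1 mM MgCl2, at 1 mg/mL protein, was treated with 10 μM compound for 30 min. Aliquots heated for 3 min across 48°C-58°C were pooled, brought to 0.5% NP-40 at 4°C and cleared at 21,000xg for 90 min. The supernatant was quantified by TMTpro 16plex LC-MS/MS with channel sums equalised.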

The chains behind the UniProt entries cited, without tags or fusion partners. Where a name states a change or a piece, a line headed by the entry shows the natural chain unless it says otherwise.
UniProt Q9Y2B0: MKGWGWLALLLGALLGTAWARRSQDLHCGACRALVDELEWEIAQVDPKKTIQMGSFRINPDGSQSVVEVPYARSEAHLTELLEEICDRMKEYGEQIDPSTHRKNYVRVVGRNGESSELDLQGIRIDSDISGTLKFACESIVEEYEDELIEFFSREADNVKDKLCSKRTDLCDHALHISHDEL
UniProt P31146: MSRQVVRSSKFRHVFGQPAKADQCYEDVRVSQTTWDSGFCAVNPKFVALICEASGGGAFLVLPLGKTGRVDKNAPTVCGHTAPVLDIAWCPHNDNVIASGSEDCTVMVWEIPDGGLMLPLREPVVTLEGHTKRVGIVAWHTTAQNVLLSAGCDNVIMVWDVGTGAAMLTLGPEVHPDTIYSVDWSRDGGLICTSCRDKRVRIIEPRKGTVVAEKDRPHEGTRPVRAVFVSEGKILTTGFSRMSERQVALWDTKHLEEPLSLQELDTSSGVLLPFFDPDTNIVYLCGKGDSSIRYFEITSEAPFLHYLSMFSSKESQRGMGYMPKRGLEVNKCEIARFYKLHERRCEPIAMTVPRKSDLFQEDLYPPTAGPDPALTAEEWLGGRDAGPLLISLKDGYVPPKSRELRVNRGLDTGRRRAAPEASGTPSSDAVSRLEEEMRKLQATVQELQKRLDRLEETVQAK
UniProt Q9UKF6: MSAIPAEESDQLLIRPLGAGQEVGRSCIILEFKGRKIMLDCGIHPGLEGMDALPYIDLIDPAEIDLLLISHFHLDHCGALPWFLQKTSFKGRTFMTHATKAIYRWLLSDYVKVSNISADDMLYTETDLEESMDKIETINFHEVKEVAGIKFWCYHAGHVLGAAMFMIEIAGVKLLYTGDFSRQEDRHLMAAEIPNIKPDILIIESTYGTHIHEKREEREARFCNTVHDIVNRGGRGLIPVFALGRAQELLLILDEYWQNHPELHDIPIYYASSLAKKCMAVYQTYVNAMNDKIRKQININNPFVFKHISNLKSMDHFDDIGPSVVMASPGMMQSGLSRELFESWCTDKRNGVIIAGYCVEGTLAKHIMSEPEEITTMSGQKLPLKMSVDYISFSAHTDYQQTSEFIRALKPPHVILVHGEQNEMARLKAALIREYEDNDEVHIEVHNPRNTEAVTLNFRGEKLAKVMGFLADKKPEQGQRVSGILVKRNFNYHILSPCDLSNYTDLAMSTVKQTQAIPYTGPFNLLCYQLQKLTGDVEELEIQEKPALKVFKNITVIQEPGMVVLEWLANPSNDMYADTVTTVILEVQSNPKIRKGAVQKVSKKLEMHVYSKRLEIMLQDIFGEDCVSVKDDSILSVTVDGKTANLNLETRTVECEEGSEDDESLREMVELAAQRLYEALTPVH
UniProt Q9UFF9, whole entry, looked up: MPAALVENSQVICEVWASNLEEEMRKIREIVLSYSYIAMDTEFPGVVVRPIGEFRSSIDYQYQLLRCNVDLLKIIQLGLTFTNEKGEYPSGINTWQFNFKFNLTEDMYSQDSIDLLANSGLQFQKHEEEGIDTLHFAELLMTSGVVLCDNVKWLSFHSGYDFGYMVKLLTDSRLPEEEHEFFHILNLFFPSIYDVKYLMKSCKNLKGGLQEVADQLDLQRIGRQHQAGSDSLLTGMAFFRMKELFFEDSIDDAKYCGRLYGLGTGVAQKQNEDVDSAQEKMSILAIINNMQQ
UniProt P14854, whole entry, looked up: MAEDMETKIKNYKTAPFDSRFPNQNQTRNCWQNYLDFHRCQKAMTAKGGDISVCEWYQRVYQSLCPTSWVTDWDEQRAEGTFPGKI
UniProt P36551: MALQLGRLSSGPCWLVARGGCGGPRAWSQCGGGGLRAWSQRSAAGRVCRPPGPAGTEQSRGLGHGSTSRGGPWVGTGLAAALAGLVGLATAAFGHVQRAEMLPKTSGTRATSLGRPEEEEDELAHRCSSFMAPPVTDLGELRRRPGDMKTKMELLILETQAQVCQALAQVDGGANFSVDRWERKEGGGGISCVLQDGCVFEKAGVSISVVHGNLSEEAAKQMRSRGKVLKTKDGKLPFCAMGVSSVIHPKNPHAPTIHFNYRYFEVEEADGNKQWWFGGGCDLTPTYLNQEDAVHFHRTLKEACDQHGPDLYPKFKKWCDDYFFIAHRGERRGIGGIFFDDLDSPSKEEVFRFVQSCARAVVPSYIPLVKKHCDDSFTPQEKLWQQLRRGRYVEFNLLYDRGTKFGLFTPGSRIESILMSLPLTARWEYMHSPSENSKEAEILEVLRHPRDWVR
UniProt Q6PJW8: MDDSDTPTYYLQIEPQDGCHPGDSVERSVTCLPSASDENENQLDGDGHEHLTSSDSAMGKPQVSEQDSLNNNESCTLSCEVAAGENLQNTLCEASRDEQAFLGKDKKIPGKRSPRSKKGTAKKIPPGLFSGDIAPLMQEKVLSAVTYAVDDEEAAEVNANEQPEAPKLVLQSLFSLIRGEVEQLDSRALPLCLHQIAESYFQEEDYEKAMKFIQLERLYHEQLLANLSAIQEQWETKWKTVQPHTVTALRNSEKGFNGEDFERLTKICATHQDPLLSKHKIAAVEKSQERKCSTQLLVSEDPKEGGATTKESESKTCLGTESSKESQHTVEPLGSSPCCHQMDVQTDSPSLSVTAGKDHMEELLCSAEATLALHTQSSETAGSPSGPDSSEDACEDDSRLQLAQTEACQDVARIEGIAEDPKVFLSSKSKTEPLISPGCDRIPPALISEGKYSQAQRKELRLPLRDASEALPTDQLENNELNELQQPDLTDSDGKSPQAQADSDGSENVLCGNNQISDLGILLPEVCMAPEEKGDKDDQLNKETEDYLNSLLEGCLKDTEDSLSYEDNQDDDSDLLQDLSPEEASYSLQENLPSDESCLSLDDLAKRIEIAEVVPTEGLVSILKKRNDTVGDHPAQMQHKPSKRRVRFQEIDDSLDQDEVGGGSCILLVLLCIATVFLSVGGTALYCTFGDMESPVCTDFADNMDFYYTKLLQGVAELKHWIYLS
UniProt Q13057: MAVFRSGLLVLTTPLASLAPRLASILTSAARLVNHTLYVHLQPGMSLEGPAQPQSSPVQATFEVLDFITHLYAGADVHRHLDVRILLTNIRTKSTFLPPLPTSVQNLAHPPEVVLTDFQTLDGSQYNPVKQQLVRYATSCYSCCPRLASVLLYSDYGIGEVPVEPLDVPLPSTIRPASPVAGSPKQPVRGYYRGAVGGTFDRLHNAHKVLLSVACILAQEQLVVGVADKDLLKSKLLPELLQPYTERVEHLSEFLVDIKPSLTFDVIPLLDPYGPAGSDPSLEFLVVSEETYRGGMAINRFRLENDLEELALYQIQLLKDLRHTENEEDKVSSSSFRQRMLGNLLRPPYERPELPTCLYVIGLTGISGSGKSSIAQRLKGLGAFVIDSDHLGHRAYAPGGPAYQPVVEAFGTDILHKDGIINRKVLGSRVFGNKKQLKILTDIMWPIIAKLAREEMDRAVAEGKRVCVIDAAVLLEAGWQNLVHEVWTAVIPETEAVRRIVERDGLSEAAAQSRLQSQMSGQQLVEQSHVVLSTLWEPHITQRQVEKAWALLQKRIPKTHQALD
UniProt Q9Y6G5, whole entry, looked up: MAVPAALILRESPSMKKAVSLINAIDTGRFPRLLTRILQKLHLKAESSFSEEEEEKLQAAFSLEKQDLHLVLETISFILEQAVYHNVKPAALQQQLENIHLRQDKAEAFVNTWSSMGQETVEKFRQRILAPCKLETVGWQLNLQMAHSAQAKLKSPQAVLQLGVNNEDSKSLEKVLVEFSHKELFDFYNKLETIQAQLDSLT
UniProt Q9GZY4: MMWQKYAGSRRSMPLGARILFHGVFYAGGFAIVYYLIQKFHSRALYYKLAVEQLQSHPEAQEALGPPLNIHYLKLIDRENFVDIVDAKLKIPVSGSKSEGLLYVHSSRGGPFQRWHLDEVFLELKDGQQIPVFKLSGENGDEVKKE
UniProt Q86VX2, whole entry, looked up: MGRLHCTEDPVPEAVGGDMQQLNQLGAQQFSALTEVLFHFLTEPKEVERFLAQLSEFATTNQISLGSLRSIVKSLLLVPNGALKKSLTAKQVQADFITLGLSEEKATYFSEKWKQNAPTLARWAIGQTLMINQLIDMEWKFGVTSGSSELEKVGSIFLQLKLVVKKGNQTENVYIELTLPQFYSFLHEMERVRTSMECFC
UniProt Q9H9E3: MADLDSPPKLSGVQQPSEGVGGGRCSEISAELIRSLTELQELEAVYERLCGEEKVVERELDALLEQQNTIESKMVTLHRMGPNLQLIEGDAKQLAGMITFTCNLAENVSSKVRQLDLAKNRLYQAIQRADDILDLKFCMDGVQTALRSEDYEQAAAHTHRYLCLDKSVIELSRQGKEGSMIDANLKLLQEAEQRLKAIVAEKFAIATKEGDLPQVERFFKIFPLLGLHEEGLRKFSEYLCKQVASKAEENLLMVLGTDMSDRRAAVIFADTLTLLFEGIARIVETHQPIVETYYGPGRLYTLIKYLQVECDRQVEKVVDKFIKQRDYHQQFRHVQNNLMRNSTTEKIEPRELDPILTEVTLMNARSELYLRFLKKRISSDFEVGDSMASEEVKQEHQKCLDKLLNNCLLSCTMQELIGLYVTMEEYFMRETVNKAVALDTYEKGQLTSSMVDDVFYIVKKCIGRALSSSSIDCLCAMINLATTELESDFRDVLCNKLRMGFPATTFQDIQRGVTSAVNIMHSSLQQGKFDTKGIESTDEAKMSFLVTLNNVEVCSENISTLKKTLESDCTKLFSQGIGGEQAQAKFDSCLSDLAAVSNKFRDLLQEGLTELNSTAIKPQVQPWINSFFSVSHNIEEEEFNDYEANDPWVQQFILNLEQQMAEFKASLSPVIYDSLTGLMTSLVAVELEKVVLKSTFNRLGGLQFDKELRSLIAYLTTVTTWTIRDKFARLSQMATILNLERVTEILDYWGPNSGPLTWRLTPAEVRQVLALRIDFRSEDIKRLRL
UniProt Q7L5N1: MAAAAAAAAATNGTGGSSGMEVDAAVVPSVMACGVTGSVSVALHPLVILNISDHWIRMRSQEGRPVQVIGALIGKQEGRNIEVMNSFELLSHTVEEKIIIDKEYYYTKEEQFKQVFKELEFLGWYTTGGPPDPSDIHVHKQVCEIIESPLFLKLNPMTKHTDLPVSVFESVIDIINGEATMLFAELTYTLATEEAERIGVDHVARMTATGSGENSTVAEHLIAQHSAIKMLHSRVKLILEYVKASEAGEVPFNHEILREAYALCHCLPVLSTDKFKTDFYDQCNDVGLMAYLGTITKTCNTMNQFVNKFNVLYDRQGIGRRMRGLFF
UniProt Q9P000, whole entry, looked up: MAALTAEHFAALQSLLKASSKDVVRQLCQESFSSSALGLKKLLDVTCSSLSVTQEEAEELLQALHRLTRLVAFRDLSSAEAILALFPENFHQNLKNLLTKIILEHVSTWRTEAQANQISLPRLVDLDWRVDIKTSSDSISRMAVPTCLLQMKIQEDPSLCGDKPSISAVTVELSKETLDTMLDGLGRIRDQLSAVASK
UniProt Q9P003: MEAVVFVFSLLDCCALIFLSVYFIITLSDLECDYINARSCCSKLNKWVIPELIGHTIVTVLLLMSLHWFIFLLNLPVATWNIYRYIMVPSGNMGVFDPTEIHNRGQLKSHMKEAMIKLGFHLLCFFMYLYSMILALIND

vorinostat = compound: O=C(CCCCCCC(=O)Nc1ccccc1)NO [vorinostat]
Outline: as §1

silmitasertib = compound: O=C(O)c1ccc2c(c1)nc(Nc1cccc(Cl)c1)c1ccncc12 [silmitasertib]
Outline: as §1

[2] = compound: O=C1NC(=O)C(c2cnc3ccccn23)=C1c1cn2c3c(cc(F)cc13)CN(C(=O)N1CCCCC1)CC2
Outline: as §1

entospletinib = compound: c1cn2cc(-c3ccc4cn[nH]c4c3)nc(Nc3ccc(N4CCOCC4)cc3)c2n1 [entospletinib]
Outline: as §1

Measured: log2 fold change

CNPY2 (UniProt Q9Y2B0)
inactive: [1] -0.02 | vorinostat 0.018 | silmitasertib -0.026 | [2] -0.059 | entospletinib -0.009

CORO1A (UniProt P31146)
active: vorinostat -0.412
inactive: [1] 0.094 | silmitasertib -0.003 | [2] 0.025 | entospletinib 0.116

CPSF3 (UniProt Q9UKF6)
inactive: [1] -0.037 | vorinostat -0.038 | silmitasertib 0.036 | [2] -0.042 | entospletinib 0.033

CNOT8 (UniProt Q9UFF9)
inactive: [1] 0.013 | vorinostat -0.093 | silmitasertib 0.043 | [2] -0.034 | entospletinib -0.017

COX6B1 (UniProt P14854)
inactive: [1] -0.156 | vorinostat -0.19 | silmitasertib -0.004 | [2] -0.008 | entospletinib -0.026

2 records drawn at random from the list so far:
CPSF3 (UniProt Q9UKF6)
inactive: [1] -0.037 | vorinostat -0.038 | silmitasertib 0.036 | [2] -0.042 | entospletinib 0.033

CNOT8 (UniProt Q9UFF9)
inactive: [1] 0.013 | vorinostat -0.093 | silmitasertib 0.043 | [2] -0.034 | entospletinib -0.017

Further results follow.

CPOX (UniProt P36551)
inactive: [1] 0.017 | vorinostat 0.136 | silmitasertib 0.09 | [2] -0.002 | entospletinib 0.015

CNST (UniProt Q6PJW8)
inactive: [1] 0.051 | vorinostat 0.056 | silmitasertib -0.028 | [2] -0.067 | entospletinib -0.024

COASY isoform 2 (UniProt Q13057)
inactive: [1] 0.018 | silmitasertib 0.075 | [2] 0.006 | entospletinib 0.019
active: vorinostat -0.214

COMMD10 (UniProt Q9Y6G5)
inactive: [1] 0.044 | vorinostat 0.013 | silmitasertib 0.048 | [2] -0.031 | entospletinib 0.015

COA1 (UniProt Q9GZY4)
inactive: [1] 0.014 | vorinostat 0.083 | silmitasertib 0.028 | [2] -0.084 | entospletinib -0.002

COMMD7 (UniProt Q86VX2)
inactive: [1] -0.037 | vorinostat 0.018 | silmitasertib -0.039 | [2] -0.015 | entospletinib 0.003

COG4 (UniProt Q9H9E3)
inactive: [1] 0.101 | silmitasertib 0.022 | [2] -0.022 | entospletinib -0.023
active: vorinostat -0.333

CNOT6L (UniProt Q96LI5)
inactive: [1] 0.019 | vorinostat -0.032 | silmitasertib 0.004 | [2] 0.017 | entospletinib 0

COPS6 (UniProt Q7L5N1)
inactive: [1] -0.17 | vorinostat 0.028 | silmitasertib 0.049 | [2] 0.005 | entospletinib 0

COMMD9 (UniProt Q9P000)
inactive: [1] -0.056 | vorinostat 0.025 | silmitasertib -0.021 | [2] 0.02 | entospletinib -0.035

CNIH4 (UniProt Q9P003)
inactive: [1] 0.09 | vorinostat 0.08 | silmitasertib 0.055 | [2] 0.114 | entospletinib 0.038
